The other results are listed elsewhere or left out. No stated cut-off is given here; in the data, active = 2 or more and inactive = the rest. Repeats in this data set agree poorly, so a single value says little.
System: Lgr5 (MarsCy1-Lgr5-EGFP, U2OS)
Experiment: cell-surface Lgr5 expression (SCi1 fluorescence, background-subtracted) relative to WT DMSO (fold of DMSO control); higher = more Lgr5 at the plasma membrane
Conditions: U2OS MarsCy1-Lgr5-EGFP stable; treatment time: overnight; library: ActiProbe-5K (TimTec); 25 µM

| SMILES | cell-surface Lgr5 expression |
| --- | --- |
| CC(C)(C)OC(=O)N[C@@H](Cc1c[nH]cn1)C(=O)O | inactive: 1.2 |
| COc1nc(N2CCCC2)nc(-n2nnc(C(C)=O)c2C)n1 | inactive: 1.15 |
| CC(=O)OCC1OC(n2cnc3c(=O)[nH]c(N)nc32)C(OC(C)=O)C1OC(C)=O (configuration not stated) | inactive: 1.14 |
| Brc1ccc2sc3ccccc3c2c1 | inactive: 1.19 |
| Fc1ccc(NCn2nnc3ccccc32)c(F)c1F | inactive: 1.17 |
| O=C1CCCCC1CCCCCCCCCCCO (configuration not stated) | inactive: 1.22 |
| COC(=O)c1c(NC(=O)C2CC2)sc2c1CCCC2 | inactive: 1.04 |
| CC(C)(C)N(CCC#N)C(=O)N1CCNC1=O | inactive: 1.5 |
| COCc1c(C(=O)OC)nnn1-c1nonc1N | inactive: 1.24 |
| CCCCCCc1nn(-c2ccccc2)[n+](-c2ccccc2)n1.[Cl-] | inactive: 1.18 |
| CN1C(=O)/C(=C2\SC(=S)N(CCS(=O)(=O)O)C2=O)c2ccccc21 | inactive: 1.41 |
| CCOC(=O)C1=C(C2CC=CCC2)NC(=S)NC1C (configuration not stated) | inactive: 1.14 |
| C1CN(c2nc(-c3nn[nH]n3)nc(N3CCOCC3)n2)CCO1 | inactive: 1.19 |
| CC(=O)CC12CC3CC(CC(Br)(C3)C1)C2 | inactive: 1.24 |
| CC(C)c1ccc2c(c1)CCC1C(C)(C#N)CCCC21C (configuration not stated) | inactive: 1.16 |
| CC(C)(C)c1ccc(-c2nn(CN3CCC(c4ccccc4)C3)c(=S)n2-c2ccccc2)cc1 (configuration not stated) | inactive: 1.1 |
| COc1cc(NS(C)(=O)=O)c(OC)cc1Cl | inactive: 1.02 |
| Cc1nccn1CCC1CCNCC1 | inactive: 0.944 |
| C/C(=N/NC(=O)c1nn(C)c(C)c1Br)c1ccnn1C | inactive: 1.07 |
| NNC(=O)c1cc(C23CC4CC(CC(C4)C2)C3)n[nH]1 | inactive: 0.863 |
| CC1(C)Cc2c(c(N3CCOCC3)nc3sc4c(NN)nnnc4c23)CO1 | inactive: 1.3 |
| N#Cc1cc2c(=O)n3ccccc3nc2n(Cc2ccco2)c1=N | inactive: 0.86 |

| SMILES | cell-surface Lgr5 expression |
| --- | --- |
| Cn1ccnc1/C=N\Nc1ccc(F)cc1 | inactive: 1.03 |
| NNC(=O)C1CCCCC1 | inactive: 1.1 |
| CCOC(=O)c1sc(N2N=C(C)/C(=C/c3ccc(C)s3)C2=O)nc1C | active: 2.09 |
| N#Cc1cc2c(nc1N)sc1c(O)cc(O)nc12 | inactive: 1.25 |
| c1ccc2[nH]c(CCCc3nc4ccccc4[nH]3)nc2c1 | inactive: 1.35 |
| O=S(=O)([O-])CCC[N+]1(CC#Cc2ccccc2)CCCCC1 | inactive: 1.09 |
| CC12CC3CC(C)(C1)CC(CC(=O)O)(C3)C2 | inactive: 1.4 |
| Nc1n[nH]c(N)c1/N=N\c1ccccc1 | inactive: 1.11 |
| O=c1[nH]/c(=C/c2ccco2)c(=O)[nH]/c1=C\c1ccco1 | inactive: 0.818 |
| C=CCC(NCc1cccs1)c1ccco1 (configuration not stated) | inactive: 1.3 |
| N#Cc1c(N)sc2c1CCCC2 | inactive: 1.27 |
| c1coc(C2NCCc3sccc32)c1 (configuration not stated) | inactive: 1.23 |
| S=C(CC(=S)N1CCOCC1)N1CCOCC1 | inactive: 1.48 |
| O=C(O)CCN1C(=O)/C(=C2/C(=O)Nc3ccc(Br)cc32)SC1=S | inactive: 1.66 |
| N(=C1/C=CC(C=C1)=O)/c1ccc(cc1)N(C)C | inactive: 1.15 |
| NS(=O)(=O)c1ccc(NS(=O)(=O)c2ccc(NC(=S)Nc3ccccc3)cc2)cc1 | inactive: 1.23 |
| COc1ccc(OC)c(NS(=O)(=O)c2cc(Cl)ccc2Cl)c1 | inactive: 1.16 |
| CC1(C)OC(=O)N(CCc2cccs2)C1(C)O (configuration not stated) | inactive: 1.08 |
| O=S(=O)(N[C@@H]1C[C@H]2CC[C@@H]1C2)c1ccc(Cl)cc1 | inactive: 1.15 |
| O=S(=O)([O-])c1cc(O)c(/N=N/c2c(O)ccc3ccccc23)c2ccccc12.[Na+] | inactive: 1.29 |
| Cc1c2c(nc3ccccc13)OC(C)C2 (configuration not stated) | inactive: 0.927 |
| O=C(CSc1nnc[nH]1)N1CCOCC1 | inactive: 1.34 |

7 of these compounds in a different format.
SMILES	cell-surface Lgr5 expression
C=CCC(NCc1cccs1)c1ccco1 (configuration not stated)	inactive: 1.3
N#Cc1c(N)sc2c1CCCC2	inactive: 1.27
c1coc(C2NCCc3sccc32)c1 (configuration not stated)	inactive: 1.23
S=C(CC(=S)N1CCOCC1)N1CCOCC1	inactive: 1.48
O=C(O)CCN1C(=O)/C(=C2/C(=O)Nc3ccc(Br)cc32)SC1=S	inactive: 1.66
N(=C1/C=CC(C=C1)=O)/c1ccc(cc1)N(C)C	inactive: 1.15
NS(=O)(=O)c1ccc(NS(=O)(=O)c2ccc(NC(=S)Nc3ccccc3)cc2)cc1	inactive: 1.23

Part of the list above in order of formula weight, low to high.

| SMILES | cell-surface Lgr5 expression |
| --- | --- |
| Cc1c2c(nc3ccccc13)OC(C)C2 (configuration not stated) | inactive: 0.927 |
| c1coc(C2NCCc3sccc32)c1 (configuration not stated) | inactive: 1.23 |
| NS(=O)(=O)c1ccc(NS(=O)(=O)c2ccc(NC(=S)Nc3ccccc3)cc2)cc1 | inactive: 1.23 |

Additional entries

| SMILES | cell-surface Lgr5 expression |
| --- | --- |
| Cc1nnnn1-c1cc2c(s1)CCCC2 | inactive: 1.36 |
| S=C(c1ccc(C(=S)N2CCOCC2)cc1)N1CCOCC1 | inactive: 1.31 |
| C(CC(N\N=C1/CCCC1)=O)(NC(C)C)=O | inactive: 1.18 |
| Cc1c(Cl)c(O)nc2nnc(C(F)(F)F)n12 | inactive: 0.999 |
| CC(C)C(=O)N(C)C1CCCCC1 | inactive: 1.06 |
| NCC1CCCN(CCO)C1 (configuration not stated) | inactive: 1.09 |
| Fc1ccc(C#Cc2ccc(C#Cc3ccc(F)cc3)cc2)cc1 | inactive: 1.43 |
| O=C(Nc1sc2c(c1C(=O)N1CCOCC1)CCC2)c1ccco1 | inactive: 0.966 |
| Cc1cc(C)c(S(N)(=O)=O)c(C)c1-n1cnnn1 | inactive: 1.15 |
| Cn1c(=S)n(CCSc2nc3ccccc3n2C2CCCCC2)c2ccccc21 | inactive: 1.29 |
| COc1ccc(/C=N\NC(=S)S)cc1OC | inactive: 1.05 |
| Cc1sc(C(C2C(=O)CC(C)(C)CC2=O)C2C(=O)CC(C)(C)CC2=O)cc1Br | inactive: 1.54 |
| Nc1nc(N)c2nc[nH]c2n1 | inactive: 1.67 |
| O=c1oc(-c2ccccn2)nc2ccccc12 | inactive: 1.11 |
| CCOC(=O)c1cnc(SC)nc1C | inactive: 1.11 |
| Clc1ccc(C2=CC(c3ccccc3)n3ncnc3N2)cc1 (configuration not stated) | inactive: 0.971 |
| N#CCSc1nc2c(c(C3CC=CCC3)c1C#N)CCC2 (configuration not stated) | inactive: 1.31 |
| c1ccc(-c2nc(-c3ccccn3)nc(-c3ccccn3)n2)nc1 | inactive: 1.01 |
| Clc1ncnc2nc3n(c12)CCC3 | inactive: 1.11 |
| CC12CN3CCN(CC(C3)/C1=N/N=C\c1ccc3c(c1)OCO3)C2 | inactive: 1.41 |
| CC(C)CCC1(CCC(=O)O)CCOC1=O (configuration not stated) | inactive: 1.25 |
| C(=N/N1CCN(C2c3ccccc3-c3ccccc32)CC1)/c1ccncc1 | inactive: 0.908 |

| SMILES | cell-surface Lgr5 expression |
| --- | --- |
| Nc1ncnc2[nH]c(Br)nc12 | inactive: 1.16 |
| N#Cc1c(NC(=O)/C=C\C(=O)O)sc2c1CCC2 | inactive: 1.51 |
| c1ccc(CN2COc3ccc4ccccc4c3C2)cc1 | inactive: 1.4 |
| Cc1nnc(SCC(=O)OC2CC(C)CCC2C(C)C)[nH]c1=O (configuration not stated) | inactive: 1.13 |
| CCOC(=O)c1cc(CSCC(O)C(O)CSCc2cc(C(=O)OCC)oc2C)c(C)o1 (configuration not stated) | inactive: 0.927 |
| CCc1nc2c(o1)NC(N)=C(C#N)C21CCN(C)CC1 | inactive: 1.14 |
| O=C1OCc2cc(-n3cnnn3)ccc21 | inactive: 0.861 |
| C=CCN1C(=O)/C(=C2\SC(N3CC(C)OC(C)C3)=NC2=O)c2cc(Br)ccc21 (configuration not stated) | active: 2.59 |
| O=C1Nc2ccc(Br)cc2/C1=N\N=C/c1c[nH]c2ccccc12 | inactive: 0.668 |
| O=C(O)/C=C\C(=O)NC1CCCCC1 | inactive: 1.52 |
| CC1(C)OCC(C2OC(O)C3OC(C)(C)OC32)O1 (configuration not stated) | inactive: 1.16 |
| Clc1ncnc2sc3c(c12)CCCCC3 | inactive: 1.15 |
| O=C(O)CCC(=O)OC1CC2CCC1C2 (configuration not stated) | inactive: 1.06 |
| Cn1ncc(Cl)c1C(=O)O | inactive: 1.18 |
| COC(=O)CCCC[C@H]1SC[C@@H](NC(N)=O)[C@H]1NC(N)=O | inactive: 1.04 |
| C#CCSc1nncn1C(=O)/C=C\c1ccco1 | inactive: 1.3 |
| N#C/C(=C\c1ccccc1/C=C(/C#N)c1ccc2c(c1)OCO2)c1ccc2c(c1)OCO2 | inactive: 1.12 |
| O=C(O)C1CCCN1C(=O)/C=C\c1ccco1 (configuration not stated) | inactive: 1.25 |
| Cc1nnc([nH]c1=O)N\N=C(\C(=O)O)C(=O)O | inactive: 1.57 |
| NNc1c(F)c(F)cc(F)c1F | inactive: 1.23 |
| [O-][n+]1onc2c3c4c([nH]c3ccc21)CCCC4 | inactive: 0.985 |
| O=S(=O)(c1ccc2c(c1)OCCO2)N1CCCCCC1 | inactive: 1.1 |

| SMILES | cell-surface Lgr5 expression |
| --- | --- |
| c1csc(-c2nnc(C3CCCCC3)o2)c1 | inactive: 0.976 |
| O=C1CN2C(=C1c1nc3ccccc3c(=O)[nH]1)NC(=O)c1ccccc12 | inactive: 1.1 |
| FC(F)(F)c1ccc(/C=N/n2cnnc2)cc1 | inactive: 1.01 |
| c1cc2c3c(cccc3c1)NC1(CCCCCC1)N2 | inactive: 1.09 |
| O=[N+]([O-])c1cc(Cl)ccc1-n1ccnc1 | inactive: 1.08 |
| COc1cc(C2CC(C)(OC)Oc3cc4c(cc32)OCO4)cc(OC)c1OC (configuration not stated) | inactive: 1 |
| O=c1[nH]cnc2c1nc(N1CCNCC1)n2C1OC(CO)C(O)C1O (configuration not stated) | inactive: 0.968 |
| N#Cc1ccc(-c2ccncc2)nc1SCc1ccncc1 | inactive: 1.13 |
| Clc1cccc(Cl)c1-c1noc(CSc2nc3ccccc3s2)n1 | inactive: 1.07 |
| CC12CC3CC(C)(C1)CC(NC(=O)C1=NNC(=O)CC1)(C3)C2 | inactive: 1.47 |
| CC1CCN(c2nc(N3CCCCC3)nc(N3CCCCC3)n2)CC1 | inactive: 1.23 |
| COc1ccc2c(c1)CCc1sc(N)nc1-2 | inactive: 1.31 |
| Cc1ccc(/C=N\n2c(S)nnc2C2CCCCC2)o1 | inactive: 1.14 |
| N=C([NH3+])NC(=N)Nc1cccc(C(F)(F)F)c1.[Cl-] | inactive: 1.2 |
| Nc1nc(-c2ccccc2)cc(=S)s1 | inactive: 0.925 |
| Cn1cc(C(=O)N2N=CCC2(O)C(F)(F)F)cn1 (configuration not stated) | inactive: 1.12 |
| OC(CNCCOc1ccccc1)Cn1c2ccccc2c2ccccc21 (configuration not stated) | inactive: 1.43 |
| C1(=C(/C(=O)C)C(=O)C)/OC(=O)c2c1cccc2 | inactive: 1.22 |
| C1(=C([C@]([C@@H]([C@@H]2(C1=CCN(C2)C))c1cocc1)(C#N)C#N)N)C#N | inactive: 1.2 |
